Measurements as given in PMC10564737, “Structure-based design of a phosphotyrosine-masked covalent ligand targeting the E3 ligase SOCS2” (Nature Communications, 2023).
“And” between values parts separate entries of the source, which are not always exact repeats. Equal values may be shown once. This continues a long series; more values of the same kind are listed elsewhere.

By UniProt entry, the sequences of proteins in these tests, tags left out. Residues count along the entry.
UniProt O14508, 32-198: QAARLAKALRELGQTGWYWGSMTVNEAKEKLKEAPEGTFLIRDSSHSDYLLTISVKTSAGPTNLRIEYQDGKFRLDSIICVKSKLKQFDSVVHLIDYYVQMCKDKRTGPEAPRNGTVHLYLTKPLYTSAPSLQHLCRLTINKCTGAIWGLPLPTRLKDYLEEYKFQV

Molecular target: T1, SBC2 (Homo sapiens, UniProt O14508)
T1 construct: SOCS2 (amino acids 32–198); His6 (N, cleaved yes); made in house; host or cells: E. coli BL21(DE3)
Assay: Covalent fluorescence polarization (FP) probe displacement assay
Format: binding
Text: With the specific covalent modification of Cys111 established, we decided to fully characterize MN551 as a covalent SOCS2 inhibitor. […] (Fig. 2g, h, Supplementary Fig. 9). Due to the covalent nature of the competing inhibitor, a time-dependent reduction in the fraction of protein-bound probe is observed. […] This value illustrates reasonable specificity for a covalent inhibitor, with nonetheless scope for future optimization. In addition to characterizing the kinetic covalency parameters, we have also assessed the stability of the MN551 by monitoring its reactivity (half-life >70 min) with reduced glutathione (GSH) (Supplementary Fig. 10)[35].
To monitor the SBC2-ligand binding kinetics we designed a fluorescein-labeled small-molecule probe - compound 26. The fluorescence polarization (anisotropy) of a threefold serial dilution of 50 µM SBC2 in 10 nM of the probe in 100 mM HEPES pH 7.5, 50 mM NaCl, 0.5 mM TCEP, 2% DMSO was measured to determine the KL (Supplementary Fig. 9A) (BMG Labtech PHERAstar – firmware v1.33). Protein titration and the curves were fitted using GraphPad Prism 9, using one-site fitting models to determine the probe binding constant, KL. Samples were run in triplicate in 384 well plates, using a total volume per well of 16 μL. The bound fraction of the probe is measure using the equation:1 Fb=Af−A/Af−Ab Where,
A time-dependent reduction in probe anisotropy were measured for a 2-fold serial dilution of […] compound MN551 in 10 nM probe +300 μM SBC2. To determine the initial reversible binding affinity, the initial bound fraction of the probe at time = 0, Fbo (the y-intercept in Fb v/s Time plot, Supplementary Fig. 9B) was plotted against MN551 concentration, and the obtained IC50 is then converted to Ki (Supplementary Fig. 9C)[17]. The slope from Fb versus time graph when divided by Fbo gives rate of covalency, kobs. A plot of kobs v/s MN551 concentration using Michaelis–Menten model of GraphPad Prism 9, provides the parameters kinact (maximum potential rate of inactivation) and KI (concentration of MN551 at which kobs = kinact/2) (Supplementary Fig. 9D, E).
The observed first-order rate constant, kobs is related to KI and kinact by the equation:2 kobs=kinactI/KI+I
At [I]«[KI] the above equation is converted to3 […]
The slope from the plot of kobs against concentration of MN551 gives us the covalent efficiency parameter kinact/KI (Supp Fig. 9F)[30],[33].

[1] = MN551 6250 nM; Cycle 11 (50 min)
[2] = MN551 6250 nM; Cycle 12 (55 min); n=1
[3] = MN551 6250 nM; Cycle 13 (60 min); n=1
[4] = MN551 6250 nM; Cycle 14 (65 min); n=1
[5] = MN551 6250 nM; Cycle 15 (70 min); n=1
[6] = MN551 6250 nM; Cycle 16 (75 min); n=1
[7] = MN551 6250 nM; Cycle 17 (80 min); n=1
[8] = MN551 12500 nM, Cycle 8 (35 min)
[9] = MN551 12500 nM, Cycle 9 (40 min)
[10] = MN551 12500 nM, Cycle 10 (45 min)
[11] = MN551 12500 nM; Cycle 7 (30 min)
[12] = MN551 12500 nM; Cycle 8 (35 min)
[13] = MN551 12500 nM; Cycle 9 (40 min)
[14] = MN551 12500 nM; Cycle 10 (45 min)
[15] = MN551 12500 nM; Cycle 11 (50 min)
[16] = MN551 12500 nM; Cycle 12 (55 min); n=1
[17] = MN551 12500 nM; Cycle 13 (60 min); n=1
[18] = MN551 12500 nM; Cycle 14 (65 min); n=1
[19] = MN551 12500 nM; Cycle 15 (70 min); n=1
[20] = MN551 12500 nM; Cycle 16 (75 min); n=1
[21] = MN551 12500 nM; Cycle 17 (80 min); n=1
[22] = MN551 25000 nM; Cycle 7 (30 min)
[23] = MN551 25000 nM; Cycle 8 (35 min)
[24] = MN551 25000 nM; Cycle 9 (40 min)

O=C(CCl)Nc1cccc(CNC(=O)[C@H](Cc2ccc(OP(=O)(O)O)cc2)NC(=O)Cc2ccc(F)cc2)c1 [MN551]
Fb (MN551 6250 nM; Cycle 10 (45 min)): 0.3266 and 0.3093 and 0.3109 and 0.2301 and 0.2543 and 0.2884 | Anisotropy [1]: 198.2 and 194.4 and 199.1 | Anisotropy based on Raw Data (485) [1]: 199 and 199.9 and 199.1 | Anisotropy data 485,520,520 [1]: 201.7 and 201 and 202.3 | Anisotropy [2]: 199.5 and 199.1 and 199 | Anisotropy based on Raw Data (485) [2]: 196.4 and 197.5 and 194 | Anisotropy [3]: 196 and 198.3 and 197.2 | Anisotropy based on Raw Data (485) [3]: 191.6 and 194.2 and 190.7 | Anisotropy [4]: 195.3 and 193.7 and 195.1 | Anisotropy based on Raw Data (485) [4]: 193.5 and 193.3 and 193 | Anisotropy [5]: 192.4 and 192.2 and 193.5 | Anisotropy based on Raw Data (485) [5]: 191.9 and 189.3 and 189.9 | Anisotropy [6]: 191.5 and 191.1 | Anisotropy based on Raw Data (485) [6]: 188.8 and 186.7 and 186 | Anisotropy [7]: 183.7 and 185.6 and 184.7 | Anisotropy based on Raw Data (485) [7]: 183.5 and 186.6 and 187.8 | Anisotropy data 485,520,520 (MN551 6250 nM; Cycle 20 (95 min); n=1): 181.5 and 181.3 and 178.6 | Fb (MN551 12500 nM, Cycle 7 (30 min)): 0.1837 and 0.2252 and 0.1968 | Anisotropy based on Raw Data (485) [8]: 196.4 and 192.9 and 191.6 | Fb [8]: 0.1586 and 0.1902 and 0.176 | Anisotropy based on Raw Data (485) [9]: 193.6 and 190.4 and 188.8 | Fb [9]: 0.1462 and 0.1718 and 0.1458 | Anisotropy based on Raw Data (485) [10]: 191.4 and 190.5 and 186.4 | Fb [10]: 0.1355 and 0.1842 and 0.155 | Anisotropy (MN551 12500 nM, Cycle 13 (60 min), n=1): 181.7 and 183.5 and 189.2 | Anisotropy (MN551 12500 nM, Cycle 14 (65 min), n=1): 180.3 and 183.6 and 187.7 | Anisotropy (MN551 12500 nM, Cycle 15 (70 min), n=1): 179.6 and 180.9 and 183.7 | Anisotropy (MN551 12500 nM, Cycle 16 (75 min), n=1): 177.3 and 179.9 and 182.9 | Anisotropy (MN551 12500 nM, Cycle 18 (85 min), n=1): 174.5 and 177.7 and 181.3 | Fb, fraction bound (MN551 12500 nM; Cycle 4 (15 min)): 0.235 and 0.2883 and 0.3254 | Fb, fraction bound (MN551 12500 nM; Cycle 5 (20 min)): 0.1985 and 0.2951 and 0.3 | Fb, fraction bound (MN551 12500 nM; Cycle 6 (25 min)): 0.1835 and 0.25 and 0.2758 | Anisotropy data 485,520,520 [11]: 192.7 and 194.6 and 195 | Fb [11]: 0.1824 and 0.2167 and 0.2094 | Fb, fraction bound [11]: 0.1573 and 0.2404 and 0.2826 | Anisotropy [12]: 189.1 and 196.5 and 200 | Anisotropy data 485,520,520 [12]: 191.6 and 193.5 and 193.1 | Fb [12]: 0.1691 and 0.2011 and 0.1981 and 0.1308 and 0.2177 and 0.2526 | Anisotropy [13]: 189.4 and 194.6 and 196.8 | Anisotropy data 485,520,520 [13]: 188.2 and 190.5 and 188.9 | Fb [13]: 0.1386 and 0.188 and 0.1681 and 0.1368 and 0.2032 and 0.2331 | Anisotropy [14]: 187.8 and 192.3 and 194.4 | Anisotropy data 485,520,520 [14]: 187.7 and 189.4 and 187 | Fb [14]: 0.1385 and 0.1801 and 0.1415 and 0.1179 and 0.1957 and 0.2214 | Anisotropy [15]: 185.9 and 188.6 and 192.2 | Anisotropy based on Raw Data (485) [15]: 190.6 and 186.3 and 183.9 | Anisotropy data 485,520,520 [15]: 189.1 and 187 and 187.4 | Anisotropy [16]: 184.9 and 185.8 and 184 | Anisotropy based on Raw Data (485) [16]: 189.4 and 184.2 and 184.4 | Anisotropy [17]: 182.2 and 184.6 and 184.5 | Anisotropy based on Raw Data (485) [17]: 183.7 and 182.3 and 181 | Anisotropy [18]: 180.8 and 180.5 and 183.2 | Anisotropy based on Raw Data (485) [18]: 181.8 and 183.2 and 180.1 | Anisotropy [19]: 179.3 and 180.8 and 181 | Anisotropy based on Raw Data (485) [19]: 182.8 and 180 and 179.1 | Anisotropy [20]: 177.5 and 179.3 and 179.5 | Anisotropy based on Raw Data (485) [20]: 180.4 and 180.3 and 177 | Anisotropy [21]: 176.6 and 179.2 and 184.1 | Anisotropy based on Raw Data (485) [21]: 181.5 and 175 and 175.9 | Anisotropy data 485,520,520 (MN551 12500 nM; Cycle 20 (95 min); n=1): 175.1 and 174.3 and 179.2 | Fb (MN551 25000 nM, Cycle 7 (30 min)): 0.06571 and 0.1096 and 0.08086 | Anisotropy based on Raw Data (485) (MN551 25000 nM, Cycle 12 (55 min)): 177.2 and 179.6 and 176.9 | Anisotropy (MN551 25000 nM, Cycle 13 (60 min), n=1): 173.9 and 176.5 and 177 | Anisotropy (MN551 25000 nM, Cycle 14 (65 min), n=1): 175.3 and 175.7 and 175.8 | Anisotropy (MN551 25000 nM, Cycle 15 (70 min), n=1): 173.7 and 175.1 and 171.9 | Anisotropy (MN551 25000 nM, Cycle 16 (75 min), n=1): 171.4 and 173.8 and 170.8 | Anisotropy (MN551 25000 nM, Cycle 18 (85 min), n=1): 172.2 and 172.1 and 170.9 | Fb, fraction bound (MN551 25000 nM; Cycle 4 (15 min)): 0.1237 and 0.1359 and 0.1307 | Fb, fraction bound (MN551 25000 nM; Cycle 5 (20 min)): 0.07607 and 0.1475 and 0.111 | Fb, fraction bound (MN551 25000 nM; Cycle 6 (25 min)): 0.08609 and 0.09601 and 0.1005 | Anisotropy data 485,520,520 [22]: 185.7 and 182.6 and 187.2 | Fb [22]: 0.113 and 0.1065 and 0.1345 | Anisotropy [23]: 183 and 181.4 | Anisotropy based on Raw Data (485) [23]: 180.8 | Anisotropy data 485,520,520 [23]: 183.3 and 181 and 184.6 | Fb [23]: 0.08844 and 0.08684 and 0.1179 and 0.07212 and 0.09209 and 0.07793 | Anisotropy [24]: 180.2 and 182.1 and 181.6 | Anisotropy based on Raw Data (485) [24]: 181.4 and 180.4 | Anisotropy data 485,520,520 [24]: 182.2 and 182.3 and 182.6 | Anisotropy (MN551 25000 nM; Cycle 10 (45 min)): 180.1 and 180.3 and 176.4
